Source: publication PMC12693566
Changes are numbered by the printed parent chain. Numbers in names are those of the source. No constants are given. Whether binding was seen depends on the method and setting. In cells and extracts the contact can be indirect. Some entries that bind do so weakly or less than the wild type. Tags and fused reporters may be left off the sequences shown.

T1: GFP-fused RIC-8 (C. elegans) (UniProt Q9GSX9)
T1 sequence: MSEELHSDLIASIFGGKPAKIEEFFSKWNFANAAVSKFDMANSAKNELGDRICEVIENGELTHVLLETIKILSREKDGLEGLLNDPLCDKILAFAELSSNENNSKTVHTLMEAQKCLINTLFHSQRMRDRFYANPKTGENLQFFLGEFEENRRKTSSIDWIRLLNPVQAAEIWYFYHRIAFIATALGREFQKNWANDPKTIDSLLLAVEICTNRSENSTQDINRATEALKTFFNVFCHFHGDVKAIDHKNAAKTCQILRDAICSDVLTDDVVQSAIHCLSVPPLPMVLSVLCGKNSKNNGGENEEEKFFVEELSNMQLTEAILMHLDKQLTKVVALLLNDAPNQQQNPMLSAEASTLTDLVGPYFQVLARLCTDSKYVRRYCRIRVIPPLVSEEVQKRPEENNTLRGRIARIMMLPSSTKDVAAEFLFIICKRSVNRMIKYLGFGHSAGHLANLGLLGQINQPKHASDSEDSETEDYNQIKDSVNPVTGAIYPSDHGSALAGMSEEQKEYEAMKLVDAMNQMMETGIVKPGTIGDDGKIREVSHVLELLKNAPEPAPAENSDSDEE

B1: TagRFP-tagged ODR-3^WT (protein, UniProt Q18434 1-356)
chain: MGSCQSNENSEGNARNKEIEKQLNADKRAGSSIVKLLLLGAGECGKSTVLKQMQILHSNGFTEEEVNEKRAIVYNNTVSAMCTILRAMDGVLHLPLENGQKEAEKAIVMKVQENGEEGEALTEEVSKAIQSLWADPGVKKAFEMRSEYQLPDSAKYFLDNCQRISEPGYRPNDQDILYSRVATTGVVEVKFKIKELDFRVFDVGGQRSERRKWIHCFDNVESIIFITAISEYDQVLFEDETTNRMIESMQLFNSICNSTWFLSTAMILFMNKKDLFMEKIQRVNITTAFPDYEGGQNYEEAVSFIKQKFAELNLNPDKKTIYMHETCATDTNQVQLVISSVIDTIIQKNLQKAGMM
B2: TagRFP-tagged ODR-3^A328P (protein, UniProt Q18434 1-356)
chain: B1 chain with A328P

Target: T1, GFP-fused RIC-8 (C. elegans)
Assay: FRET or BRET; FRET-FLIM in vivo in AWC neurons of C. elegans; GFP lifetime of RIC-8::GFP alone or co-expressed with TagRFP-tagged ODR-3

Row | binding | Binder
1 | binds | B1
2 | binds | B2
